Laboratory results published in publication PMC5553161.
Results are given in words; binding and its absence hold for the method and conditions named. In cells and extracts the contact can be indirect. A result given as binding can be weak or reduced; the word gives no strength.

Experiments:
[1] = molecular target: T1, nucleosome assembly protein 1-like protein 1 (human (endogenous in Huh7)) (UniProt P55209); experiment: proximity ligation; fixed, permeabilised Huh7 cells stably harboring SGRs; mouse anti-NS5A with rabbit anti-NAP1L1 or anti-Bin1; Duolink PLA probes, signals counted per cell
T1 sequence: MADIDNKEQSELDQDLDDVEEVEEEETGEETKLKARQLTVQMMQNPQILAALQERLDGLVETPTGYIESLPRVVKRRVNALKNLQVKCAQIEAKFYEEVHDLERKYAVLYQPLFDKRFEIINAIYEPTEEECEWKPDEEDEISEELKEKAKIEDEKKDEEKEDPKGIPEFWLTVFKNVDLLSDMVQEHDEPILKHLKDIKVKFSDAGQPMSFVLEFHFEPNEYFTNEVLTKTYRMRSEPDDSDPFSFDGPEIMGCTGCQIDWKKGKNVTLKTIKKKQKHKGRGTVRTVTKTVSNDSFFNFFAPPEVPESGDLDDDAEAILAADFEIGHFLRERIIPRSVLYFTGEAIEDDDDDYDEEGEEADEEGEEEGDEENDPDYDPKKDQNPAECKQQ

[2] = molecular target: T2, bridging integrator 1 (human (endogenous in Huh7)) (UniProt O00499); experiment: as above
T2 sequence: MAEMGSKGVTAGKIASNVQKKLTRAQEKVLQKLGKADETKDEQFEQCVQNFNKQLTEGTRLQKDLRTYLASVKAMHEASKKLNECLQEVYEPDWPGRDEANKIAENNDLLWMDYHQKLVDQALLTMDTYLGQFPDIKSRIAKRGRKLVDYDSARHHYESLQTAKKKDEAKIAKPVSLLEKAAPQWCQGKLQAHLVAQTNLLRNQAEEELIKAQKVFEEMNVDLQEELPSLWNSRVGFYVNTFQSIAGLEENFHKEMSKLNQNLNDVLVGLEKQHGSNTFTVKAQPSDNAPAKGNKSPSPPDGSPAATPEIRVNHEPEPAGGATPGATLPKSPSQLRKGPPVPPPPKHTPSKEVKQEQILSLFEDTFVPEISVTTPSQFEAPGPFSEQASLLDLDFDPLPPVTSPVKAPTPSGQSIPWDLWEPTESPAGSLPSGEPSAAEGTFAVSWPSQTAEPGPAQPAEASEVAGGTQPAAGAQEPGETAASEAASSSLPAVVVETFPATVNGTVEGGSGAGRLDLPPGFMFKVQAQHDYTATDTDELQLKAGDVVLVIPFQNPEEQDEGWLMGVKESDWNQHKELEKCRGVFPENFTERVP

[3] = molecular target: T1, nucleosome assembly protein 1-like protein 1 (human (endogenous in Huh7)); experiment: co-IP; lysates of Huh7 cells stably harboring wild-type, S225D or S225A SGRs immunoprecipitated with antibodies to NAP1L1, Bin1, VAP-A or VAP-B; Western blot for NS5A, quantified (n = 3)
[4] = molecular target: T3, vesicle-associated membrane protein-associated protein A (human (endogenous in Huh7)) (UniProt Q9P0L0); experiment: as above
T3 sequence: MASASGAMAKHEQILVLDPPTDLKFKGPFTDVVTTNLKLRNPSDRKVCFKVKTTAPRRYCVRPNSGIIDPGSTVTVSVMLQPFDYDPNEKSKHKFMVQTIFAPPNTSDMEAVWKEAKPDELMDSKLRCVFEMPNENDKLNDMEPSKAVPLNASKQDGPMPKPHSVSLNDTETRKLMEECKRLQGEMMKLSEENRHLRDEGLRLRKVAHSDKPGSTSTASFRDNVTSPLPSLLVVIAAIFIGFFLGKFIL

[5] = molecular target: T2, bridging integrator 1 (human (endogenous in Huh7)); experiment: as above

Measured: binding

One-Strep-tagged (OST) NS5A S225D of hepatitis C virus JFH-1 (genotype 2a)
binds: all assays above

One-Strep-tagged (OST) wild-type NS5A of hepatitis C virus JFH-1 (genotype 2a)
binds: all assays above
